This passage reports binding results from article PMC6938330, “Crystal structures of p120RasGAP N-terminal SH2 domain in its apo form and in complex with a p190RhoGAP phosphotyrosine peptide” (PLoS ONE, 2019).

Test [1] deals with p120RasGAP N-terminal SH2 domain (residues 174-280, C236S, C261S) (human) (UniProt P20936). As to the kind of experiment: crystal structure; apo N-SH2 crystals, 6 copies per asymmetric unit in P3_(2); 0.2 M ammonium acetate, 0.1 M Tris pH 8.0, 21% w/v PEG 10,000, room temperature; 1.75 Å; both purified.
Test [2] has as its target T1, R207A mutant p120RasGAP N-terminal SH2 domain (human) (UniProt P20936).
T1 sequence: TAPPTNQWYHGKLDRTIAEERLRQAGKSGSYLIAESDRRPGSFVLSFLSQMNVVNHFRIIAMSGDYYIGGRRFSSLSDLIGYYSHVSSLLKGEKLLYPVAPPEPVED
As to the kind of experiment: ITC; peptide in the burette injected into N-SH2 in the cell (78.5 μM into 15 μM wild type; 120 μM into 15 μM R207A); 20 mM Tris 7.4, 150 mM NaCl; Nano-ITC, 20 injections of 2.5 μL; independent binding model; two runs; both purified. (In general: Isothermal titration calorimetry measures the heat released or taken up as one component is titrated into another.)

The target of test [3] is T1, R207A mutant p120RasGAP N-terminal SH2 domain (human). As to the kind of experiment: condition: phosphopeptide 0.02 mM to 0.15 mM with 0.08 mM protein; native gel or EMSA; native PAGE; 0.08 mM protein mixed with 0.02-0.15 mM phosphopeptide (peptide:protein ratio 0.25 to 1.9) in 50 mM Tris pH 7.4, 10 minutes on ice; 4-20% gel, 25 mM Tris, 192 mM glycine, pH 8.3; Coomassie stain; both purified. On the technique in general: Mobility shift assays separate free from complexed probe on a gel.

Changes are numbered by the printed parent chain. In names and notes the source's numbering stands. No constants are given. Whether binding was seen depends on the method and setting.

B1: p120RasGAP N-terminal SH2 domain (residues 174-280, C236S, C261S) (domain or fragment, UniProt P20936 174-280)
chain: T1 sequence with A34R
In the case of B1, in test [1], the binding entry is listed as “no binding”.

B2: p190RhoGAP pTyr-1105 phosphopeptide EEENI(p-Tyr)SVPHDST (residues 1100-1112) (peptide)
peptide: EEENIYSVPHDST
modifications: phosphotyrosine at Tyr-1105; N-terminal acetylation; C-terminal amidation
In the case of B2, the binding result in test [2] is on record as “no binding (tested: 120 μM peptide into 15 μM protein)”; in test [3], “no binding”.
